In the supplement of paper PMC7752906:
Counter-ions that a name gives are not always drawn. This is one part of the list. This data set is noisy: repeats of one test often differ as much as different tests do.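 Wells held roughly 40 S. mansoni schistosomula, imaged in bright field over time against wells given 0.1% DMSO. The paper defines hits as drugs with a Mahalanobis distance of at least 2.47, three standard deviations above the DMSO control mean. Degeneracy is the proportion of worms classified as opaque.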

What follows are compounds tested on Schistosoma mansoni schistosomula (assay: Mahalanobis distance of static-rate-frequency phenotype descriptors from DMSO controls (dimensionless); higher = stronger phenotypic change versus DMSO). Conditions: 10 µM; 72 h.

SMILES	Mahalanobis distance
O=C(O)c1cc(=O)c2ccccc2o1 [Chromocarb]	inactive: 1.61
S=C1SCN(Cc2ccccc2)CN1Cc1ccccc1 [sulbentine]	inactive: 1.74
COc1cc(C(=O)NS(=O)(=O)c2ccccc2C)ccc1Cc1cn(C)c2ccc(NC(=O)OC3CCCC3)cc12 [Zafirlukast]	active: 2.83
CN[C@H](CC(C)C)C(=O)N[C@H]1C(=O)N[C@@H](CC(N)=O)C(=O)N[C@H]2C(=O)N[C@H]3C(=O)N[C@H](C(=O)N[C@H](C(=O)O)c4cc(O)cc(O)c4-c4cc3ccc4O)[C@H](O)c3ccc(c(Cl)c3)Oc3cc2cc(c3O[C@@H]2O[C@H](CO)[C@@H](O)[C@H](O)[C@H]2O[C@H]2C[C@](C)(N)[C@H](O)[C@H](C)O2)Oc2ccc(cc2Cl)[C@H]1O [Vancomycin]	inactive: 1.61
CN[C@H](CC(C)C)C(=O)N[C@H]1C(=O)N[C@@H](CC(N)=O)C(=O)N[C@H]2C(=O)N[C@H]3C(=O)N[C@H](C(=O)N[C@H](C(=O)O)c4cc(O)cc(O)c4-c4cc3ccc4O)[C@H](O)c3ccc(c(Cl)c3)Oc3cc2cc(c3O[C@@H]2O[C@H](CO)[C@@H](O)[C@H](O)[C@H]2O[C@H]2C[C@](C)(N)[C@H](O)[C@H](C)O2)Oc2ccc(cc2Cl)[C@H]1O [Vancomycin Hydrochloride]	inactive: 2.29
O=C(CCCl)NCc1ccccc1 [Beclamide]	inactive: 1.5
C=NC(C(=O)NC1C(=O)N2C1SC(C)(C)C2C(=O)O)c1ccccc1 (stereo not given) [Metampicillin Sodium]	inactive: 1.6
CC(C)COCC(CN(Cc1ccccc1)c1ccccc1)N1CCCC1 (stereo not given) [Bepridil Hydrochloride]	inactive: 1.55
CC[C@@]1(O)C(=O)OCc2c1cc1n(c2=O)Cc2cc3c([N+](=O)[O-])cccc3nc2-1 [Rubitecan]	inactive: 1.31
CCC(CC)(CC(=O)Nc1cccc(/C=C/c2nc(C3CCC3)cs2)c1)C(=O)O [Cinalukast]	inactive: 1.56
CN(C)CCC=C1c2ccccc2CCc2ccccc21 [Amitriptyline]	inactive: 2.38
CS(=O)(=O)c1ccc(C2=C(c3ccccc3)C(=O)OC2)cc1 [Rofecoxib]	inactive: 1.88
O=C(Nc1ccccc1)c1ccccc1O [Salicylanilide]	inactive: 1.87
Cc1ncc([N+](=O)[O-])n1CC(O)CCl (stereo not given) [Ornidazole]	active: 3.71
N#Cc1ccc2[nH]cc(CCCCN3CCN(c4ccc5oc(C(N)=O)cc5c4)CC3)c2c1 [Vilazodone Hydrochloride]	active: 2.71
CN1C(C(=O)Nc2ccccn2)=C(O)c2sccc2S1(=O)=O [Tenoxicam]	inactive: 1.47
CN(C)c1ccc2nc3ccc(=[N+](C)C)cc-3sc2c1 [Methylene Blue]	inactive: 1.71
Cc1c(C(N)=O)cc([N+](=O)[O-])cc1[N+](=O)[O-] [Dinitolmide]	inactive: 1.85
C=C[C@H]1CN2CC[C@H]1C[C@@H]2[C@@H](O)c1ccnc2ccc(OC)cc12 [Quinidine]	active: 2.71
C[C@]12CC[C@H]3C(=CCc4cc(O)ccc43)[C@@H]1CCC2=O [Equilin]	inactive: 1.7
C[C@]12C=CC(=O)C=C1CC[C@@H]1[C@@H]2[C@@H](O)C[C@@]2(C)[C@H]1CC[C@]2(O)C(=O)COP(=O)(O)O [Prednisolone Sodium Phosphate]	inactive: 1.53
CC(=O)c1ccc2c(c1)N(CCCN1CCC(CCO)CC1)c1ccccc1S2 [Piperacetazine]	inactive: 1.77

An excerpt of these results, in markdown.

| SMILES | Mahalanobis distance |
| --- | --- |
| O=C(O)c1cc(=O)c2ccccc2o1 [Chromocarb] | inactive: 1.61 |
| CN[C@H](CC(C)C)C(=O)N[C@H]1C(=O)N[C@@H](CC(N)=O)C(=O)N[C@H]2C(=O)N[C@H]3C(=O)N[C@H](C(=O)N[C@H](C(=O)O)c4cc(O)cc(O)c4-c4cc3ccc4O)[C@H](O)c3ccc(c(Cl)c3)Oc3cc2cc(c3O[C@@H]2O[C@H](CO)[C@@H](O)[C@H](O)[C@H]2O[C@H]2C[C@](C)(N)[C@H](O)[C@H](C)O2)Oc2ccc(cc2Cl)[C@H]1O [Vancomycin] | inactive: 1.61 |
| CC(C)COCC(CN(Cc1ccccc1)c1ccccc1)N1CCCC1 (stereo not given) [Bepridil Hydrochloride] | inactive: 1.55 |

(next part)

SMILES	Mahalanobis distance
CNCC[C@H](Oc1cccc2ccccc12)c1cccs1 [Duloxetine Hydrochloride]	inactive: 2.02
CCCCC(CC)CN1CN(CC(CC)CCCC)CC(C)(N)C1 (stereo not given) [hexetidine]	active: 3
COC(=O)C1=C(C)NC(C)=C(C(=O)O[C@H]2CCN(Cc3ccccc3)C2)[C@H]1c1cccc([N+](=O)[O-])c1 [Barnidipine]	active: 4.12
CCN(CC)CCOC(=O)C(c1ccccc1)C1CCCCC1 (stereo not given) [Drofenine Hydrochloride]	active: 2.67
COCC1=C(C(=O)OC(C)OC(=O)OC(C)C)N2C(=O)[C@@H](NC(=O)/C(=N\OC)c3csc(N)n3)[C@H]2SC1 (stereo not given in full) [Cefpodoxime Proxetil]	inactive: 1.35
CC(C)(Sc1cc(C(C)(C)C)c(O)c(C(C)(C)C)c1)Sc1cc(C(C)(C)C)c(O)c(C(C)(C)C)c1 [Probucol]	inactive: 1.45
CCC(=O)c1ccc(O)cc1 [Paroxypropione]	inactive: 1.73
Cn1ccnc1S [Thiamazole]	inactive: 1.76
Nc1c(Br)cc(Br)cc1CN[C@H]1CC[C@H](O)CC1 [Ambroxol Hydrochloride]	inactive: 1.27
Oc1ccc(Cl)c2cccnc12 [Cloxyquin]	active: 2.54
CCCN(CCC)C(=O)C(CCC(=O)O)NC(=O)c1ccccc1 (stereo not given) [Proglumide]	inactive: 1.65
O=C1O[C@H](CO)[C@@H](O)[C@H](O)[C@H]1O [Gluconolactone]	inactive: 2.42
CCCCCCCCCCC[C@@H](C[C@@H]1OC(=O)[C@H]1CCCCCC)OC(=O)[C@H](CC(C)C)NC=O [orlistat]	inactive: 2.18
CC(C)(S)[C@@H](N)C(=O)O [Penicillamine]	inactive: 1.66
O=C(O)C1CSCN1 (stereo not given) [Timonacic]	inactive: 1.6
CCC(=O)OCC(=O)[C@@]1(OC(=O)CC)[C@H](C)CC2C3C([C@@H](O)C[C@@]21C)[C@@]1(C)C=CC(=O)C=C1C[C@H]3Cl (stereo not given in full) [Alclometazone Dipropionate]	inactive: 1.82
CN1CCCN=C1COC(=O)C(O)(c1ccccc1)C1CCCCC1 (stereo not given) [Oxyphencyclimine Hydrochloride]	inactive: 2.17
CC(C)(Oc1ccc(Cl)cc1)C(=O)O [Clofibric Acid]	inactive: 1.43
CC(=O)N[C@@H](CCC(N)=O)C(=O)O [Aceglutamide]	inactive: 1.86
CC1CCc2c(N3CCC(O)CC3)c(F)cc3c(=O)c(C(=O)O)cn1c23 (stereo not given) [Nadifloxacin]	inactive: 1.38
Cc1ccc(-c2ncc(Cl)cc2-c2ccc(S(C)(=O)=O)cc2)cn1 [Etoricoxib]	active: 2.7
CO[C@H]1O[C@@H]2O[C@@]3(C)CC[C@H]4[C@H](C)CC[C@@H]([C@H]1C)[C@@]24OO3 [Artemether]	inactive: 1.31

SMILES	Mahalanobis distance
NC12CC3CC(CC(C3)C1)C2 [Amantadine]	active: 2.84
Cc1cc(=O)n(-c2ccccc2)n1C [Antipyrine]	inactive: 1.96
Nc1ncnc(Nc2ccc(Cl)cc2)n1 [Chlorazanil Hydrochloride]	inactive: 1.86
CCOC(=O)C(C)(C)Oc1ccc(Cl)cc1 [Clofibrate]	inactive: 2.39
C[C@@H]1[C@H](O)[C@@H](C)/C=C/C=C/C=C/C=C/C=C/C=C/C=C/[C@H](O[C@@H]2O[C@H](C)[C@@H](O)[C@H](N)[C@@H]2O)C[C@@H]2O[C@](O)(C[C@@H](O)C[C@@H](O)[C@H](O)CC[C@@H](O)C[C@@H](O)CC(=O)O[C@H]1C)C[C@H](O)[C@H]2C(=O)O [Amphotericin B]	active: 4.71
C[C@]12CC[C@@H]3c4ccc(O)cc4CC[C@H]3[C@@H]1CC[C@@H]2OC(=O)CCC1CCCC1 [Estradiol Cypionate]	active: 2.61
CN1CCc2cccc3c2[C@H]1Cc1ccc(O)c(O)c1-3 [Apomorphine Hydrochloride]	inactive: 2.3
CN1CCc2cccc3c2[C@H]1Cc1ccc(O)c(O)c1-3 [R(-)-apomorphine]	inactive: 2.29
CCC(NC(C)C)C(O)c1ccc(O)c(O)c1 (stereo not given) [Isoetharine Mesylate]	inactive: 1.72
CCC(Cc1c(I)cc(I)c(N)c1I)C(=O)O (stereo not given) [Iopanic Acid]	inactive: 2.13
CN1CC(=O)NC1=N [Creatinine]	inactive: 2.02
CCN[C@H]1C[C@H](C)S(=O)(=O)c2sc(S(N)(=O)=O)cc21 [Dorzolamide??hcl]	inactive: 1.44
CC(=O)N(O)CCCCCNC(=O)CCC(=O)N(O)CCCCCNC(=O)CCC(=O)N(O)CCCCCN [Deferoxamine]	inactive: 1.86
CO/N=C1\C[C@]2(C[C@@H]3C[C@@H](C/C=C(\C)C[C@@H](C)/C=C/C=C4\CO[C@@H]5[C@H](O)C(C)=C[C@@H](C(=O)O3)[C@]45O)O2)O[C@H](/C(C)=C/C(C)C)[C@H]1C [moxidectin]	inactive: 2.31
CCCCN1CCCCC1C(=O)Nc1c(C)cccc1C (stereo not given) [Bupivacaine Hydrochloride]	inactive: 1.86
CCOC(=O)NNc1nncc2ccccc12 [Todralazine Hydrochloride]	active: 2.64
CC(C)(C)c1ccc(C(O)CCCN2CCC(C(O)(c3ccccc3)c3ccccc3)CC2)cc1 (stereo not given) [terfenadine]	inactive: 1.94
COc1ccc(CC2c3cc(OC)c(OC)cc3CC[N+]2(C)CCC(=O)OCCCCCOC(=O)CC[N+]2(C)CCc3cc(OC)c(OC)cc3C2Cc2ccc(OC)c(OC)c2)cc1OC (stereo not given) [Atracurium Besylate]	inactive: 1.75
Cc1nc(Nc2ncc(C(=O)Nc3c(C)cccc3Cl)s2)cc(N2CCN(CCO)CC2)n1 [Dasatinib]	active: 2.67
CCN(CCO)CCCC(C)Nc1ccnc2cc(Cl)ccc12 (stereo not given) [Hydroxychloroquine Sulfate]	active: 2.52
COc1cc([C@@H]2c3cc4c(cc3[C@@H](O[C@@H]3O[C@@H]5CO[C@@H](c6cccs6)O[C@H]5[C@H](O)[C@H]3O)[C@H]3COC(=O)[C@H]23)OCO4)cc(OC)c1O [Teniposide]	inactive: 2.19
